{"source": "paper PMC7251097", "about": "“Aspartate/asparagine-β-hydroxylase: a high-throughput mass spectrometric assay for discovery of small molecule inhibitors” (Scientific Reports, 2020)", "target": "T1, His6-AspH315–758 (human aspartate/asparagine-β-hydroxylase, AspH) (Homo sapiens, UniProt Q12797)", "T1 construct": "N-Terminally His6-tagged human AspH315–758 (His6-AspH315–758) was produced in E. coli BL21 (DE3) cells; made in house; host or cells: E. coli BL21 (DE3), pET-28a(+) vector", "T1 sequence (Q12797 315-758)": "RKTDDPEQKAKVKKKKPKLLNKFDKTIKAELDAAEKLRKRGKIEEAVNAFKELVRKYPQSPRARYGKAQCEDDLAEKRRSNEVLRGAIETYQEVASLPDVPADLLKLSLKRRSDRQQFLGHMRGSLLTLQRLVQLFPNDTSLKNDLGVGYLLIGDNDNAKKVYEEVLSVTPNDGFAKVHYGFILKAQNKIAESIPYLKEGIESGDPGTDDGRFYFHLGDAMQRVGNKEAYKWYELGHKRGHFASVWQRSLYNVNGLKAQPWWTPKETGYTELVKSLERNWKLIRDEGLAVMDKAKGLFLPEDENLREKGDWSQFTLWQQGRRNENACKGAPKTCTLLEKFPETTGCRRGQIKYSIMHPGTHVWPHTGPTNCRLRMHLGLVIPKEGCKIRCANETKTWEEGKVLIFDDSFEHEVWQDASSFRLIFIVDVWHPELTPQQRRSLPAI", "test": "SPE-MS AspH inhibition assay (LOPAC screen at fixed 20 μM and IC50 dose-response), hydroxylation of cyclic peptide hFX-CP101–119", "assay_type": "biochemical", "key": {"[1]": {"conditions": "LOPAC compound at 20uM, plate 3, conversion of substrate peptide"}, "[2]": {"conditions": "LOPAC compound at fixed 20 uM, substrate conversion, plate 1"}, "[3]": {"conditions": "LOPAC compound at 20uM, conversion of substrate peptide"}}, "note": "Structures can show the parent of a compound that is named as a salt. Where two headings read alike, the source gives them in different places.", "data": [{"smiles": "CCCNCC(O)COc1ccccc1C(=O)CCc1ccccc1", "note": "(stereo not shown) [Propafenone hydrochloride]", "values": [{"measurement": "Plate 3 (% conversion)", "setting": "[1]", "value": 40.93, "unit": "%"}]}, {"smiles": "CC[N+](CC)(CC)CC(=O)Nc1c(C)cccc1C.[Br-]", "values": [{"measurement": "Plate 3 (% conversion)", "value": 38.04, "unit": "%"}]}, {"smiles": "CN1[C@@H]2CC[C@H]1C[C@@H](OC(=O)C(CO)c1ccccc1)C2", "note": "(stereo partly shown) [Atropine sulfate]", "values": [{"measurement": "Plate 1 (% conversion)", "value": 34.94, "unit": "%"}]}, {"smiles": "CC(C)c1c(C(=O)Nc2ccccc2)c(-c2ccccc2)c(-c2ccc(F)cc2)n1CC[C@@H](O)C[C@@H](O)CC(=O)O", "note": "[Atorvastatin calcium salt trihydrate]", "values": [{"measurement": "Plate 1 (% conversion)", "setting": "[2]", "value": 35.35, "unit": "%"}, {"measurement": "Plate 5 (% conversion)", "setting": "plate 5 (Pfitzer), test compounds at fixed 20 μM, mean conversion DMSO 32.88", "value": 30.47, "unit": "%"}]}, {"smiles": "O=C(O)COCCN1CCN(C(c2ccccc2)c2ccc(Cl)cc2)CC1", "note": "(stereo not shown) [Cetirizine dihydrochloride]", "values": [{"measurement": "Plate 2 (% conversion)", "setting": "[3]", "value": 37.89, "unit": "%"}]}, {"smiles": "Cc1cnc(C(=O)NCCc2ccc(S(=O)(=O)NC(=O)NC3CCCCC3)cc2)cn1", "note": "[Glipizide]", "values": [{"measurement": "Plate 2 (% conversion)", "setting": "[3]", "value": 38.93, "unit": "%"}]}, {"smiles": "CN[C@H](CC(C)C)C(=O)N[C@H]1C(=O)N[C@@H](CC(N)=O)C(=O)N[C@H]2C(=O)N[C@H]3C(=O)N[C@H](C(=O)N[C@H](C(=O)O)c4cc(O)cc(O)c4-c4cc3ccc4O)[C@H](O)c3ccc(c(Cl)c3)Oc3cc2cc(c3O[C@@H]2O[C@H](CO)[C@@H](O)[C@H](O)[C@H]2O[C@H]2C[C@](C)(N)[C@H](O)[C@H](C)O2)Oc2ccc(cc2Cl)[C@H]1O.Cl", "values": [{"measurement": "% conversion", "value": 26.47, "unit": "%"}]}, {"smiles": "CCN(CC)CC(=O)Nc1c(C)cccc1C", "note": "[Lidocaine hydrochloride]", "values": [{"measurement": "Plate 3 (% conversion)", "setting": "[1]", "value": 40.90, "unit": "%"}]}, {"smiles": "CCCCc1oc2ccccc2c1C(=O)c1cc(I)c(OCCN(CC)CC)c(I)c1", "note": "[Amiodarone hydrochloride]", "values": [{"measurement": "Plate 1 (% conversion)", "setting": "[2]", "value": 25.09, "unit": "%"}]}, {"smiles": "CCCC[N+]1(C)[C@@H]2C[C@@H](OC(=O)[C@H](CO)c3ccccc3)C[C@H]1[C@@H]1O[C@@H]12.[Br-]", "note": "(single isomer, unassigned; (-)) [(-)-Scopolamine,n-Butyl-, bromide]", "values": [{"measurement": "% conversion", "value": 32.88, "unit": "%"}]}, {"smiles": "NS(=O)(=O)c1cc(C(=O)O)c(NCc2ccco2)cc1Cl", "note": "[Furosemide]", "values": [{"measurement": "Plate 2 (% conversion)", "setting": "[3]", "value": 35.06, "unit": "%"}]}, {"smiles": "CN(C)CCOC(c1ccccc1)c1ccccc1", "note": "[Diphenhydramine hydrochloride]", "values": [{"measurement": "Plate 2 (% conversion)", "setting": "[3]", "value": 38.54, "unit": "%"}]}, {"smiles": "CCOC(=O)N1CCC(=C2c3ccc(Cl)cc3CCc3cccnc32)CC1", "note": "[Loratadine]", "values": [{"measurement": "Plate 3 (% conversion)", "setting": "[1]", "value": 39.31, "unit": "%"}]}, {"smiles": "CC1=C(C(=O)O)N2C(=O)[C@@H](NC(=O)[C@H](N)c3ccccc3)[C@H]2SC1.O", "note": "[Cephalexin hydrate]", "values": [{"measurement": "Plate 1 (% conversion)", "setting": "[2]", "value": 31.01, "unit": "%"}]}, {"smiles": "Br.CN1[C@@H]2CC(OC(=O)[C@H](CO)c3ccccc3)C[C@H]1[C@@H]1O[C@@H]12", "note": "(single isomer, unassigned; (-)) [(-)-Scopolamine hydrobromide]", "values": [{"measurement": "% conversion", "value": 39.78, "unit": "%"}]}]}
